This data set in a line: general procedure: Fmoc solid-phase peptide synthesis; trityl chloride resin (e.g.); also 2-chlorotrityl chloride, Wang, Sasrin, HMPB; Rink amide, Pal, MBHA or Sieber for C-ter.

For the substance “4-((2-(FFRKSIINFEKL)-2-oxoethoxy)imino)pentanoic acid”, the step yield (late stage modification step) came out at 62%. Besides, the “final HPLC purity” value (late stage modification step, HPLC) is on record as 96% pure by HPLC.
“(2S,3S,4R)-1-(6-Deoxy-6-(4-((2-(FFRKSIINFEKL)-2-(oxo)ethoxyimino)pentanoyloxy)methoxycarbonylamino)-α-D-galactopyranosyloxy)-2-hexacosanoylamino-3,4-octadecandiol” yielded a conjugation yield (conjugation step) of 52%.

For the origin of these results see patent US10046046B2 (Victoria Link Limited, priority 2014, dated 2018).
